Assay results published in the supplement of paper PMC7661543.
Differences between knockout arms are mostly noise.

Test system: BT-20
Experiment: relative cell number vs DMSO control (72 h) (% of DMSO); higher = less growth inhibition (more cells)
Experimental: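 QMAP-Seq: a pool of 5 breast cancer cell lines (ZR-75-1, SKBR3, HCC-38, MDA-MB-231, BT-20), each carrying 12 doxycycline-inducible Cas9 sgRNA perturbations (11 knockouts plus non-targeting sgNT), was treated with compounds for 72 h at four 10-fold doses (10 nM-10 uM or 1 nM-1 uM range). Barcodes were amplified and sequenced, and cell number was interpolated from 293T spike-in standard curves. The result is expressed as % of the median of DMSO wells. Two biological replicates.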

O=C(CCc1ccc(O)cc1)c1c(O)cc(O)cc1O [Phloretin]
Settings	relative cell number
sgRNA knockout: sgATF3, 10 nM	107
sgRNA knockout: sgATF3, 100 nM	114
sgRNA knockout: sgATF3, 1000 nM	111
sgRNA knockout: sgATF3, 10000 nM	109
sgRNA knockout: sgATF4, 10 nM	117
sgRNA knockout: sgATF4, 100 nM	114
sgRNA knockout: sgATF4, 1000 nM	106
sgRNA knockout: sgATF4, 10000 nM	130
sgRNA knockout: sgATF6, 10 nM	91.7
sgRNA knockout: sgATF6, 100 nM	101
sgRNA knockout: sgATF6, 1000 nM	103.8
sgRNA knockout: sgATF6, 10000 nM	113
sgRNA knockout: sgATG7, 10 nM	103
sgRNA knockout: sgATG7, 100 nM	101
sgRNA knockout: sgATG7, 1000 nM	100
sgRNA knockout: sgATG7, 10000 nM	114
sgRNA knockout: sgERN1, 10 nM	114
sgRNA knockout: sgERN1, 100 nM	107.3
sgRNA knockout: sgERN1, 1000 nM	95.9
sgRNA knockout: sgERN1, 10000 nM	109
sgRNA knockout: sgHSF1, 10 nM	111
sgRNA knockout: sgHSF1, 100 nM	102
sgRNA knockout: sgHSF1, 1000 nM	102
sgRNA knockout: sgHSF1, 10000 nM	105
sgRNA knockout: sgHSF2, 10 nM	97.3
sgRNA knockout: sgHSF2, 100 nM	103
sgRNA knockout: sgHSF2, 1000 nM	114
sgRNA knockout: sgHSF2, 10000 nM	117
sgRNA knockout: sgKEAP1, 10 nM	113
sgRNA knockout: sgKEAP1, 100 nM	94.2
sgRNA knockout: sgKEAP1, 1000 nM	96
sgRNA knockout: sgKEAP1, 10000 nM	109
sgRNA knockout: sgNFE2L2, 10 nM	104
sgRNA knockout: sgNFE2L2, 100 nM	113
sgRNA knockout: sgNFE2L2, 1000 nM	102
sgRNA knockout: sgNFE2L2, 10000 nM	119
sgRNA knockout: sgSLC35F2, 10 nM	107
sgRNA knockout: sgSLC35F2, 100 nM	101
sgRNA knockout: sgSLC35F2, 1000 nM	103
sgRNA knockout: sgSLC35F2, 10000 nM	109
sgRNA knockout: sgXBP1, 10 nM	96.8
sgRNA knockout: sgXBP1, 100 nM	101
sgRNA knockout: sgXBP1, 1000 nM	110
sgRNA knockout: sgXBP1, 10000 nM	124

Nc1ccn([C@@H]2O[C@H](CO)[C@@H](O)C2(F)F)c(=O)n1 [Gemcitabine]
Settings	relative cell number
sgRNA knockout: sgATF3, 10 nM	54.89
sgRNA knockout: sgATF3, 100 nM	26.9
sgRNA knockout: sgATF3, 1000 nM	25.5
sgRNA knockout: sgATF3, 10000 nM	27.2
sgRNA knockout: sgATF4, 10 nM	70.3
sgRNA knockout: sgATF4, 100 nM	33.08
sgRNA knockout: sgATF4, 1000 nM	34.82
sgRNA knockout: sgATF4, 10000 nM	26.6
sgRNA knockout: sgATF6, 10 nM	75.6
sgRNA knockout: sgATF6, 100 nM	28.4
sgRNA knockout: sgATF6, 1000 nM	34.3
sgRNA knockout: sgATF6, 10000 nM	30
sgRNA knockout: sgATG7, 10 nM	59.5
sgRNA knockout: sgATG7, 100 nM	20.5
sgRNA knockout: sgATG7, 1000 nM	28.3
sgRNA knockout: sgATG7, 10000 nM	27.6
sgRNA knockout: sgERN1, 10 nM	60.5
sgRNA knockout: sgERN1, 100 nM	28.8
sgRNA knockout: sgERN1, 1000 nM	34.1
sgRNA knockout: sgERN1, 10000 nM	25.7
sgRNA knockout: sgHSF1, 10 nM	71
sgRNA knockout: sgHSF1, 100 nM	25.8
sgRNA knockout: sgHSF1, 1000 nM	29.3
sgRNA knockout: sgHSF1, 10000 nM	27.6
sgRNA knockout: sgHSF2, 10 nM	60.6
sgRNA knockout: sgHSF2, 100 nM	31.2
sgRNA knockout: sgHSF2, 1000 nM	33
sgRNA knockout: sgHSF2, 10000 nM	25.2
sgRNA knockout: sgKEAP1, 10 nM	61.1
sgRNA knockout: sgKEAP1, 100 nM	28.3
sgRNA knockout: sgKEAP1, 1000 nM	31.5
sgRNA knockout: sgKEAP1, 10000 nM	28.1
sgRNA knockout: sgNFE2L2, 10 nM	73.6
sgRNA knockout: sgNFE2L2, 100 nM	28.8
sgRNA knockout: sgNFE2L2, 1000 nM	36.1
sgRNA knockout: sgNFE2L2, 10000 nM	24.3
sgRNA knockout: sgSLC35F2, 10 nM	69.3
sgRNA knockout: sgSLC35F2, 100 nM	27.8
sgRNA knockout: sgSLC35F2, 1000 nM	32.7
sgRNA knockout: sgSLC35F2, 10000 nM	29.7
sgRNA knockout: sgXBP1, 10 nM	62.2
sgRNA knockout: sgXBP1, 100 nM	31
sgRNA knockout: sgXBP1, 1000 nM	31.5
sgRNA knockout: sgXBP1, 10000 nM	27.64

Cc1cn(-c2cc(NC(=O)c3ccc(C)c(Nc4nccc(-c5cccnc5)n4)c3)cc(C(F)(F)F)c2)cn1 [Nilotinib]
Settings	relative cell number
sgRNA knockout: sgATF3, 10 nM	90.9
sgRNA knockout: sgATF3, 100 nM	98.4
sgRNA knockout: sgATF3, 1000 nM	99.3
sgRNA knockout: sgATF3, 10000 nM	61.9
sgRNA knockout: sgATF4, 10 nM	97.6
sgRNA knockout: sgATF4, 100 nM	99.7
sgRNA knockout: sgATF4, 1000 nM	91.4
sgRNA knockout: sgATF4, 10000 nM	56.7
sgRNA knockout: sgATF6, 10 nM	90.3
sgRNA knockout: sgATF6, 100 nM	97.4
sgRNA knockout: sgATF6, 1000 nM	122.8
sgRNA knockout: sgATF6, 10000 nM	74.8
sgRNA knockout: sgATG7, 10 nM	99.5
sgRNA knockout: sgATG7, 100 nM	102
sgRNA knockout: sgATG7, 1000 nM	104
sgRNA knockout: sgATG7, 10000 nM	62
sgRNA knockout: sgERN1, 10 nM	87.5
sgRNA knockout: sgERN1, 100 nM	104
sgRNA knockout: sgERN1, 1000 nM	112
sgRNA knockout: sgERN1, 10000 nM	60.8
sgRNA knockout: sgHSF1, 10 nM	106
sgRNA knockout: sgHSF1, 100 nM	96.4
sgRNA knockout: sgHSF1, 1000 nM	100
sgRNA knockout: sgHSF1, 10000 nM	71.5
sgRNA knockout: sgHSF2, 10 nM	94.6
sgRNA knockout: sgHSF2, 100 nM	85.8
sgRNA knockout: sgHSF2, 1000 nM	95.9
sgRNA knockout: sgHSF2, 10000 nM	68.3
sgRNA knockout: sgKEAP1, 10 nM	92.9
sgRNA knockout: sgKEAP1, 100 nM	94.1
sgRNA knockout: sgKEAP1, 1000 nM	102
sgRNA knockout: sgKEAP1, 10000 nM	69.6
sgRNA knockout: sgNFE2L2, 10 nM	104
sgRNA knockout: sgNFE2L2, 100 nM	96.5
sgRNA knockout: sgNFE2L2, 1000 nM	107
sgRNA knockout: sgNFE2L2, 10000 nM	73.3
sgRNA knockout: sgSLC35F2, 10 nM	98.2
sgRNA knockout: sgSLC35F2, 100 nM	87.6
sgRNA knockout: sgSLC35F2, 1000 nM	99.8
sgRNA knockout: sgSLC35F2, 10000 nM	76.1
sgRNA knockout: sgXBP1, 10 nM	107
sgRNA knockout: sgXBP1, 100 nM	102
sgRNA knockout: sgXBP1, 1000 nM	101.8
sgRNA knockout: sgXBP1, 10000 nM	61.1
